The results in this text go back to article PMC8505262.

Results are given in words; binding and its absence hold for the method and conditions named. Binding seen in cells or lysates may run through a third protein. A yes stands for co-enrichment or nearness to the bait. Other partners may have been found. Sequences can lack the tags named with a protein.

The target of the test is T1, HA-tagged Neurensin-2 (UniProt Q5HZK2).
T1 sequence: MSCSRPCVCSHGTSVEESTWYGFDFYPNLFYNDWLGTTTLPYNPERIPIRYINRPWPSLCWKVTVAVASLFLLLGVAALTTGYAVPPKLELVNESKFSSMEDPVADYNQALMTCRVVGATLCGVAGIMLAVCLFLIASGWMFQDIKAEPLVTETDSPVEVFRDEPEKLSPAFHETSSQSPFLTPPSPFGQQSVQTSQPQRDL
As to the kind of experiment: affinity purification with mass spectrometry; N2a cells transfected with HA-tagged Neurensin-2 or HA control; the tagged protein immunoprecipitated, partners identified by mass spectrometry.

B1: Homer3 (protein, UniProt Q99JP6 1-356)
chain: MSTAREQPIFSTRAHVFQIDPTTKRNWIPAGKHALTVSYFYDATRNVYRIISIGGAKAIINSTVTPNMTFTKTSQKFGQWADSRANTVYGLGFASEQQLTQFAEKFQEVKEAARLAREKSQDGGEFTSTGLALASHQVPPSPLVSTNGPGEEKLFRSQSADTPGPTERERLKKMLSEGSVGEVQWEAEFFALQDSNQRLAGALREANAAATQWRQQLEVQRAEAELLRQRVAELEAQVAVEPVRAGEKEATSQSVEQLEARVQTKDQTLKNQSTGTREAPDTAEREETQQQVQDLETRNAELEQQLRSMECNLEEARAERERARAEVGRAAQLLDVRLFELSELREGLARLAEAAP
As for B1, the binding entry was “binds”.

B2: Homer1 (protein, UniProt Q9Z2Y3 1-366)
chain: MGEQPIFSTRAHVFQIDPNTKKNWVPTSKHAVTVSYFYDSTRNVYRIISLDGSKAIINSTITPNMTFTKTSQKFGQWADSRANTVYGLGFSSEHHLSKFAEKFQEFKEAARLAKEKSQEKMELTSTPSQESAGGDLQSPLTPESINGTDDERTPDVTQNSEPRAEPTQNALPFPHSAGDRTQALSHASSAISKHWEAELATLKGNNAKLTAALLESTANVKQWKQQLAAYQEEAERLHKRVTELECVSSQANAVHSHKTELNQTVQELEETLKVKEEEIERLKQEIDNARELQEQRDSLTQKLQEVEIRNKDLEGQLSDLEQRLEKSQNEQEAFRSNLKTLLEILDGKIFELTELRDNLAKLLECS
As for B2, the binding result was “binds”.
